Values of other authors, collected in patent US20250367189A1, “2-BROMO-LYSERGIC ACID DI[…] SUBSTANCE ABUSE” (Ceruvia Lifesciences LLC, priority 2020, published 2025).
For at least one compound, name, drawing or mass did not settle the structure.

Test system: volunteers with DSM-IV alcohol dependence
Settings: oral psilocybin, one or two sessions, p<0.05; cited from earlier work

## CN(C)CCc1c[nH]c2cccc(OP(=O)(O)O)c12 [psilocybin]
  abstinence following psilocybin administration: increased significantly
